No constants are given. Whether binding was seen depends on the method and setting. In cells and extracts the contact can be indirect. A yes stands for co-enrichment or nearness to the bait. Other partners may have been found.
Target: centenarian SIRT6 protein (CentSIRT6; N308K and A313S) (human (endogenous in hMSCs)) (UniProt Q8N6T7)
Assay: affinity purification with mass spectrometry

The chains behind the UniProt entries cited, without tags or fusion partners. Where a name states a change or a piece, a line headed by the entry shows the natural chain unless it says otherwise.
UniProt Q8N6T7: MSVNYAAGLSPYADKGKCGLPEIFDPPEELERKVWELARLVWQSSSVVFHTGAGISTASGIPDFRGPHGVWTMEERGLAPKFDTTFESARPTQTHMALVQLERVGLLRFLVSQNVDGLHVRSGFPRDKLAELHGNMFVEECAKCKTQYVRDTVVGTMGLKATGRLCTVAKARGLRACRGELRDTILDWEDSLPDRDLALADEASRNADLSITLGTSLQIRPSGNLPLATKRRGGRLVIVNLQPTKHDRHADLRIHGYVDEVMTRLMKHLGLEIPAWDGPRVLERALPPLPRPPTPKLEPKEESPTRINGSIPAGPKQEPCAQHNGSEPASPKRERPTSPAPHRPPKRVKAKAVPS
UniProt P08670: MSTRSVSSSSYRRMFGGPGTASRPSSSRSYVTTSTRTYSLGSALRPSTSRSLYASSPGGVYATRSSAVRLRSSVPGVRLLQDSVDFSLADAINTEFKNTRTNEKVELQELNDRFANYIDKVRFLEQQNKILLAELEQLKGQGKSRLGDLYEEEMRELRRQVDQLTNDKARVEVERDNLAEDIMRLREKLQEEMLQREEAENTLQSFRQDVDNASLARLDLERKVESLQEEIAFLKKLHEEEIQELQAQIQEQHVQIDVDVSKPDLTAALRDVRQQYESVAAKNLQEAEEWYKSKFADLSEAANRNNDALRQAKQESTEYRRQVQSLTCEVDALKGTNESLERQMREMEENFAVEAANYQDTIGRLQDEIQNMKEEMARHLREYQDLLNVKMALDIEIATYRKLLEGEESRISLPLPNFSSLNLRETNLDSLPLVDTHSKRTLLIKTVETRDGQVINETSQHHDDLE

vimentin (VIM) (from UniProt P08670 1-466)
binding: binds
